PubChem BioAssay AID588590 (National Center for Advancing Translational Sciences (NCATS), 2011)
Where “and” joins values, the source holds several entries; their conditions need not be identical. Equal entries are not always repeated. Among all 390,000 compounds or so, about 4,000 (1%) were called active. The shares of active, inactive and inconclusive entries below differ from those in the screen. Calls follow the shape of the dose curve; as a rule, active = well fitted inhibition curve with a large enough effect; inconclusive = small, poorly fitted or top-dose-only effect, or another doubt; inactive = no such curve, though single readings can be large or run the other way. Potencies beside an inconclusive call are fits to weak or partial responses and may not hold up.

By UniProt entry, the sequences of proteins in these tests, tags left out. Where a name states a change or a piece, a line headed by the entry shows the natural chain unless it says otherwise.
UniProt Q9UNA4: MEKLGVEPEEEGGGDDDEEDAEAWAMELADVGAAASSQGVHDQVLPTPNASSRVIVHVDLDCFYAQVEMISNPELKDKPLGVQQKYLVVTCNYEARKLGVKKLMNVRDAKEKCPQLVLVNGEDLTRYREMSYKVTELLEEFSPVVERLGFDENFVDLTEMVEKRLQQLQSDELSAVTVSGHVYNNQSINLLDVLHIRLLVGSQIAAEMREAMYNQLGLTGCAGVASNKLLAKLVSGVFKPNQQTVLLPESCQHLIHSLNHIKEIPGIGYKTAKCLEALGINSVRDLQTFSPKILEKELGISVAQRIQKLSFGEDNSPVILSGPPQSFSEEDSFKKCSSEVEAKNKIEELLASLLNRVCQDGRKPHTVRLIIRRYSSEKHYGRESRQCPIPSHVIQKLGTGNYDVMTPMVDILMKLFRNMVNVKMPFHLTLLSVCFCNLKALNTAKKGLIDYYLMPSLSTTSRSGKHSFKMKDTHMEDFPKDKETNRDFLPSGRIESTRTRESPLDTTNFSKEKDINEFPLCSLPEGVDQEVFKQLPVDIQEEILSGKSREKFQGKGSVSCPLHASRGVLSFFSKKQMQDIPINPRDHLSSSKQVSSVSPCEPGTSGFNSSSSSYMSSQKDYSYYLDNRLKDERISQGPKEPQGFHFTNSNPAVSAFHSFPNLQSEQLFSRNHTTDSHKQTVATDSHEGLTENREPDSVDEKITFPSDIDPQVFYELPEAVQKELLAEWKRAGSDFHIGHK

These compounds were tested against DNA polymerase iota (Homo sapiens) (UniProt Q9UNA4) (assay: qHTS for Inhibitors of Polymerase Iota). Details: Pol iota fluorescent replication assay, 10 min; series mostly up to 115 µM.
How it was run: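 Pol iota at 10 nM preincubated 15 min with compounds at room temperature; reaction started with fluorescent substrate, 50 nM final. Fluorescence read kinetically at 0 and 10 min; buffer-only wells as negative control.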
Potency is read from the fitted curve at half-maximal effect.

Potency, inactive:
O=C(Nc1ccc(Cl)cc1)Nc1cc([N+](=O)[O-])ccc1F
CCCCN(CCCC)c1ccc(/C=C2\C=Cc3ccccc32)cc1
COc1ccc(C(=O)Nc2ccccc2C(=O)N2CCOCC2)cc1
Cc1ccc2nc3n(c2c1)CCCN3
CC1CN(c2ccc(Cl)cc2)c2nc3c(c(=O)n(CC(=O)O)c(=O)n3C)n2C1 (centres undefined)
Oc1nc(Nc2ccc(F)cc2)sc1/C=C1\C=Nc2ccccc21
Cc1cc(OC(C)C(=O)Nc2c(C(=O)c3ccc(F)cc3)oc3ccccc23)ccc1Cl (centres undefined)
COc1ccc2[nH]c(C(=O)O)c(NS(=O)(=O)c3ccc(Cl)s3)c2c1
Cc1c(-c2csc(N)n2)c2ccccc2n1C
Cc1cccc(-n2ncc(C(=O)N3CCN(c4ccc(Cl)cc4)CC3)c2C2CCN(C(=O)OC(C)(C)C)CC2)c1
O=C(O)CCN1C(=O)/C(=C2\C(=O)N(Cc3ccc(F)cc3)c3ccccc32)SC1=S
CCOC(=O)c1ccc(N2C(=O)c3[nH]nc(-c4ccc(C)cc4)c3C2c2cccc(F)c2)cc1 (centres undefined)
O=C(NCc1ccc(F)cc1)NC(=O)c1ccc(Cl)cc1
CC1CC(C)CN(CCCNC(=O)c2ccc3c(c2)ncn3C2CCCC2)C1 (centres undefined)
CCCN(CCC)CC(=O)Nc1cccc2c1OCO2
Cc1cc(C(F)(F)F)n2nc(-c3ccc(Br)cc3)cc2n1
Cc1ccc(S(=O)(=O)N(C)C)cc1NC(=O)Cn1c(CN2CCOCC2)nc2ccccc2c1=O
Cc1ccc(OCC(=O)Nc2ccccc2C(=O)NC2CC2)cc1C
O=C(CN(C(=O)C1CSC(=O)C1)c1cccc(F)c1)NCc1ccc2c(c1)OCO2 (centres undefined)

Potency, inconclusive:
Cc1nn(C)c(C)c1NC(=O)CSc1nc(-c2ccccc2Cl)nc2c1cnn2-c1ccccc1 10 µM [inhibitor, single point]
COc1cc(NS(=O)(=O)c2ccc(NC(=S)NC(=O)/C=C/c3ccco3)cc2)ncn1 2.51 µM [inhibitor, full curve, poor fit]
CCC(=O)NNc1nc2c(C)cccc2s1 89.1 µM [inhibitor, single point]
Cc1cc(C)c[n+](-c2[nH]c(=O)sc2/C=N/NC([S-])=Nc2ccccc2)c1 31.6 µM [inhibitor, single point]
Cc1ccc(-c2c(C#N)c(N)n3c(nc4ccccc43)c2C#N)cc1 0.631 µM [inhibitor, full curve, poor fit]
Cc1cc(/C=C2\SC(=S)NC2=O)c(C)n1C 12.6 µM [inhibitor, full curve, poor fit]
O=C(Cc1ccccc1)Nc1ccc(NC(=O)c2ccccc2)c(Cl)c1 44.7 µM [inhibitor, partial curve, poor fit]
COc1ccc(CNC(=O)CNC(=O)c2ccc(C(C)(C)C)cc2)cc1OC 0.631 µM [inhibitor, full curve, poor fit]
COc1ccc2occ(CC(=O)Nc3ccc(S(=O)(=O)Nc4nccc(C)n4)cc3)c2c1 100 µM [inhibitor, single point]
C=CCn1c(SCC(=O)NC(=O)NCc2ccco2)nc2sc(C)c(C)c2c1=O 112 µM [inhibitor, partial curve, poor fit]
Cc1ccc(NC(=O)COC(=O)CCC2CCCC2)c(Br)c1 79.4 µM [inhibitor, partial curve]
C[C@@H](NC(=O)Cn1ccc(NC(=O)OCc2ccccc2)nc1=O)c1cccc2ccccc12 39.8 µM [inhibitor, single point]
Cc1cc(C(=O)NCc2cc(C(=O)O)co2)co1 50.1 µM [inhibitor, partial curve, poor fit]
O=C(Nn1c(O)c(C=C2N=c3ccccc3=N2)sc1=S)c1ccc(Cl)cc1 3.55 µM [inhibitor, full curve, poor fit]
Cc1cccc(-c2c3c(=O)n(C)c(=O)n(C)c3cn2CCO)c1 14.1 µM [inhibitor, partial curve, poor fit]
CCCc1cc(C(N)=O)c(NC(=O)C2CCCO2)s1 (centres undefined) 25.1 µM [inhibitor, single point]
CC1=CC2=NC(=O)/C(=C\c3cccn3CCOc3ccccc3C)C(=N)N2O1 44.7 µM [inhibitor, partial curve, poor fit]
Cc1ccc2c(c1)-c1c(ssc1=S)C(C)(C)N2C(=O)c1ccco1 39.8 µM [inhibitor, single point]
O=C(O)c1cc(S(=O)(=O)Nc2ccc3cn[nH]c3c2)ccc1O 22.4 µM [inhibitor, full curve]
Cc1cnc(C(=O)OCC(=O)c2ccc[nH]2)cn1 50.1 µM [inhibitor, partial curve]
Cc1cc(OC(=O)c2cccc(F)c2)c([N+](=O)[O-])c(=O)[nH]1 10 µM [inhibitor, full curve, poor fit]
CCCCNC(=O)Nc1c(C)cc(SC#N)cc1C 10 µM [inhibitor, partial curve, poor fit]
Cn1nc(C(=O)NCc2ccc(Cl)cc2)c2c1-c1ccccc1S(=O)(=O)C2 70.8 µM [inhibitor, partial curve]
CCOC(=O)Cc1csc(NC(=O)COc2ccc3c(C)cc(=O)oc3c2)n1 56.2 µM [inhibitor, partial curve, poor fit]
O=c1cc(-c2ccccc2Cl)oc2c(NS(=O)(=O)c3cccc4nsnc34)ccc(O)c12 39.8 µM [inhibitor, single point]
O=C(N/N=C/c1c(O)n(-c2ccccc2Cl)c(=O)c2ccccc12)c1cccnc1 31.6 µM [inhibitor, partial curve]
COc1cc(/C=C/C(=O)OCC(=O)Nc2ccc3c(c2)OCO3)ccc1O 56.2 µM [inhibitor, partial curve, poor fit]
CC(C)c1nc(SCC(=O)Nc2c[nH]c(=O)[nH]c2=O)c2cnn(-c3ccccc3)c2n1 70.8 µM [inhibitor, partial curve]
CCCCCn1c(=O)[nH]c2cc(C(=O)Nc3cc(C)cc(C)c3)ccc2c1=O 79.4 µM [inhibitor, partial curve]
CN(C)S(=O)(=O)N(CC(=O)NCCSCc1ccccc1)c1ccccc1 79.4 µM [inhibitor, single point] and 56.2 µM [inhibitor, partial curve, poor fit]
O=C(CCNC(=O)C1CCN(S(=O)(=O)c2ccc(F)cc2)CC1)NCc1ccc(Cl)cc1 2.82 µM [inhibitor, full curve, poor fit]
O=C1CC(C(=O)Nc2ccc(O)c(C(=O)O)c2)C(c2ccccc2)O1 (centres undefined) 44.7 µM [inhibitor, partial curve]
CCCC(=O)Nc1ccc(-c2nc3ncccc3o2)cc1 31.6 µM [inhibitor, partial curve, poor fit]
COc1ccc(NC(=O)CSc2nc3[nH]c(=O)cc(O)c3s2)c(OC)c1 11.2 µM [inhibitor, partial curve, poor fit]
CCN(CC)CCCN1C=C2C(=O)C(C)(OC(=O)C3CCCC3)C(=O)C(c3ccccc3)=C2C=C1CCCC(=O)OC (centres undefined) 35.5 µM [inhibitor, partial curve, poor fit]
O=C1OCCN1C(=O)[C@H]1[C@H](c2ccc(Cl)cc2)C(c2cccc(Cl)c2)=NN1c1ccccc1 39.8 µM [inhibitor, single point]
COc1cc(-c2cc(N)n(S(=O)(=O)c3ccc(F)cc3)n2)cc(OC)c1OC 22.4 µM [inhibitor, partial curve, poor fit]
O=C(O)C1C2C=CC(O2)C1C(=O)Nc1ccc(S(=O)(=O)Nc2ccccc2)cc1 (centres undefined) 70.8 µM [inhibitor, partial curve, poor fit]
Cc1cc2oc(=O)sc2cc1NS(=O)(=O)c1ccccc1 28.2 µM [inhibitor, single point]
CC(C)c1ccc(Cn2c(COc3ccccc3)nc3ccccc32)cc1 17.8 µM [inhibitor, partial curve, poor fit]
Cc1ccc(NC(=O)Cn2c(=O)n(Cc3nc(-c4ccccc4)no3)c(=O)c3cc4c(cc32)OCO4)cc1F 10 µM [inhibitor, partial curve, poor fit]
NC(=O)c1ccc(Oc2ccc3ccc(=O)oc3c2)c([N+](=O)[O-])c1 39.8 µM [inhibitor, partial curve, poor fit]
CCOc1ccc(S(=O)(=O)Nc2nccs2)cc1 79.4 µM [inhibitor, partial curve]

Pulled by structure from above, three records:
Potency, inconclusive:
C[C@@H](NC(=O)Cn1ccc(NC(=O)OCc2ccccc2)nc1=O)c1cccc2ccccc12 39.8 µM [inhibitor, single point]
O=C1CC(C(=O)Nc2ccc(O)c(C(=O)O)c2)C(c2ccccc2)O1 (centres undefined) 44.7 µM [inhibitor, partial curve]
O=c1cc(-c2ccccc2Cl)oc2c(NS(=O)(=O)c3cccc4nsnc34)ccc(O)c12 39.8 µM [inhibitor, single point]

Following part:

Potency, active:
Cc1ccc2c(CC(=O)Nc3sccc3C(N)=O)coc2c1 79.4 µM
CS(=O)(=O)c1ccc(S(=O)CC(=O)OCc2ccccc2)c([N+](=O)[O-])c1 (centres undefined) 20 µM
